This is an account of results in PMC4094855.

Amino acid sequences for entries named in this document (tags omitted).
UniProt P34932: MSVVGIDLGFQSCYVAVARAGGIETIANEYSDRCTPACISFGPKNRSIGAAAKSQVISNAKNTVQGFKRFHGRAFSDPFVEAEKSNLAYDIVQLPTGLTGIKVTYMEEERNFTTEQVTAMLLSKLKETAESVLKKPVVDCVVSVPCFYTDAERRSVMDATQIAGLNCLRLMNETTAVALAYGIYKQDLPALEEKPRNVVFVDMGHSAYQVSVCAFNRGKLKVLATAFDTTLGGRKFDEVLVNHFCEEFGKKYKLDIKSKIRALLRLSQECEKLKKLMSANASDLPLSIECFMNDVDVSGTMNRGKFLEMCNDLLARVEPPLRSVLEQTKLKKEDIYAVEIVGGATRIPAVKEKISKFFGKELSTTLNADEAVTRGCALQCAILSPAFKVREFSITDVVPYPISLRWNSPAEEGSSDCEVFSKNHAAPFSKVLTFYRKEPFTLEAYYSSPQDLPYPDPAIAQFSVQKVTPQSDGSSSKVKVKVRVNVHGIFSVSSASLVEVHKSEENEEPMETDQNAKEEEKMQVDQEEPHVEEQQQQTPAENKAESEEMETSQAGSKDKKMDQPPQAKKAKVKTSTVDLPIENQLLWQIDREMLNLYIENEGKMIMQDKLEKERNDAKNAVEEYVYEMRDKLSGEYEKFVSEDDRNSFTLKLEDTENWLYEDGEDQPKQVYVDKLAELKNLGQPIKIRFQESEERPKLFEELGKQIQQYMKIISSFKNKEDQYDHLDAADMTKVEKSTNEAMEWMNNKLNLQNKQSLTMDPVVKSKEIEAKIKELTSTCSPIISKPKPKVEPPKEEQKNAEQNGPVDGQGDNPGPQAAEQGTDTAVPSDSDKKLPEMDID
UniProt P04264: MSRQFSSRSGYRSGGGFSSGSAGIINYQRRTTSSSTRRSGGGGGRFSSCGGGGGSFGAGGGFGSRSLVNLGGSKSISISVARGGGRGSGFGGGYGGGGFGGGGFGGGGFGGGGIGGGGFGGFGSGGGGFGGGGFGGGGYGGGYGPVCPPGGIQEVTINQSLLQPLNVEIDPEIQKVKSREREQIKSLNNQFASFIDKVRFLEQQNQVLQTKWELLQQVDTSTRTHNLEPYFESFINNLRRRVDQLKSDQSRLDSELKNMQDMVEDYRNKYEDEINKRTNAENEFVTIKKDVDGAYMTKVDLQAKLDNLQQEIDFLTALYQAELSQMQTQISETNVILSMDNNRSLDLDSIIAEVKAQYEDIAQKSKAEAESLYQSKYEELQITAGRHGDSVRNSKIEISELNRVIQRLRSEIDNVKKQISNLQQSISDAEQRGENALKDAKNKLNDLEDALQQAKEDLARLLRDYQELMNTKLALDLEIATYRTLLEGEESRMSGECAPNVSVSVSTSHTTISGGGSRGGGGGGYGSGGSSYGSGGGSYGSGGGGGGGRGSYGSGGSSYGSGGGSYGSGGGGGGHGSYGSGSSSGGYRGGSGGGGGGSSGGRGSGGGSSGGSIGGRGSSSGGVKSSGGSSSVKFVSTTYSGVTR

The target of this assay is Hsp74 (human (endogenous in BLZ211 bladder cancer cells)) (UniProt P34932). Nature of the assay: co-IP; purified McAb immobilised on gel in spin cups (ProFound Co-IP Kit, Pierce); BLZ211 total cell lysate (M-PER); eluate run on a gel, bands identified by LC-MS/MS.

These are yes or no findings as the source states them, for the method shown. In cells and extracts the contact can be indirect. Some binding calls cover weakened binding; strength is not graded here.

keratin 1 (from UniProt P04264 1-644): the binding result is given as “binds”.
